Test results from patent US8058476B2, “HCI polymorphs of 3-((2-(dimethylamino)methyl(cyclohex-1-yl)) phenol” (priority 2005, dated 2011).
Structures can show the parent of a compound that is named as a salt. Where two headings read alike, the source gives them in different places. At least one structure is not confirmed: it was looked up by name or label, or the drawing left a doubt.

What was measured:
[1] = Absorption of water by dynamic vapour sorption (DVS); assay type: physicochemical; conditions: 25° C.
Procedure: The absorption of water is ascertained by dynamic vapour sorption (DVS) with a DVS-1 instrument manufactured by Surface Measurement Systems Ltd. The sample is placed in a platinum crucible at the pivot of a microbalance. The sample is then initially equilibrated at 50% relative air humidity and then subjected to a predefined measuring program. The temperature was 25° C. The change in weight of the sample is determined.

[2] = 23° C.; for crystalline form found by Raman spectrum: Example 8.4: forms IV and II together in ethyl acetate
[3] = Hydrate formation in the presence of atmospheric moisture (description); assay type: physicochemical
[4] = Dehydration by vacuum and/or hygroscopic reagents; assay type: physicochemical; conditions: vacuum and/or hygroscopic reagents such as phosphorus pentoxide
[5] = Stability under elevated pressure or grinding; assay type: physicochemical; conditions: e.g. 8000 bar for 60 minutes, or grinding; no conversion into forms I, II, III or IV

SMILES | relative air humidity above which the crystalline form absorbs water very quickly [1] [%] | water content of the sample if the relative air humidity is reduced to 0% ([1]; 0% relative air humidity) [wt. %] | water content at 50% relative air humidity at the end of the measuring cycle ([1]; 50% relative air humidity, end of cycle) [%] | recorded Raman spectrum at the end of the measuring cycle ([1]; end of cycle) | crystalline form found by Raman spectrum after stirring ([2]; Example 8.2: forms III and IV together in ethyl acetate, twelve days) | crystalline form found by Raman spectrum ([2]; after 32 days) | crystalline form found by Raman spectrum ([2]; after the first three days) | crystalline form found by Raman spectrum ([2]; initially) | relative air humidity at which hydrates of the crystalline form V are formed [3] [%] | dehydration [4] | change under elevated pressure or grinding [5]
CN(C)CC1CCCCC1c1cccc(O)c1 [crystalline form IV, (1R,2R)-3-[2-(dimethylamino)methyl(cyclohex-1-yl)]phenol hydrochloride] | > 60 | 3.1 | 7.6 | corresponds to the Raman spectrum of the crystalline form V | only bands of the crystalline form I were measured | almost exclusively the crystalline form I was detected | the first traces of the crystalline form I were detected | only bands of the crystalline form II were measured | > 50 | – | –
CN(C)CC1CCCCC1c1cccc(O)c1 [crystalline form V, (1R,2R)-3-[2-(dimethylamino)methyl(cyclohex-1-yl)]phenol hydrochloride] | – | – | – | – | – | – | – | – | – | can be dehydrated only with difficulty | do not change under elevated pressure
